Molecules are shown by their SMILES. Some compounds share one wording; it may come from a single statement. Bridge positions count the residues as written; N and C are the ends. Peptide text beside a SMILES is read from it. * marks the point of attachment. 5TAMRA = CN(C)c1ccc2c(c1)Oc1cc(N(C)C)ccc1C21OC(=O)c2cc(C(=O)*)ccc21

In one data set the test system is MG1655 cells. Kind of data set: Intracellular uptake of 5-TAMRA-AMP conjugates (single-cell fluorescence). It is filed as cell-based, Escherichia coli. To be noted: 50 nM 5-TAMRA conjugate plus unlabeled AMP at 2X MIC, within 10 min of growth inhibition.
Data set [1] deals with CJW7020 cells (RplA-msfGFP) and CJW7859 cells (HupA-msfGFP). In words: Spatial localization of fluorescently labeled AMPs relative to ribosome and DNA markers (SCF*). The format is cell-based, Escherichia coli. The following applies: unlabeled AMP at 2X MIC plus 5% labeled derivative; late time points.

For the compound `CC[C@H](C)[C@H](NC(=O)CNC(=O)[C@H](CC(=O)O)NC(=O)[C@H](CCCNC(=N)N)NC(=O)[C@@H](NC(=O)[C@H](CC(N)=O)NC(=O)[C@H](CCC(N)=O)NC(=O)CNC(=O)[C@@H](NC(=O)[C@H](CCCCN)NC(=O)[C@H](CCC(=O)O)NC(=O)[C@@H](NC(=O)[C@H](CCCCN)NC(=O)[C@H](CCCCN)NC(=O)[C@H](Cc1ccccc1)NC(=O)[C@H](CC(C)C)NC(=O)[C@H](CCCCN)NC(=O)[C@H](Cc1c[nH]c2ccccc12)NC(=O)[C@H](CCCCN)NC(=O)c1ccc2c(c1)C(=O)OC21c2ccc(N(C)C)cc2Oc2cc(N(C)C)ccc21)[C@@H](C)CC)C(C)C)[C@@H](C)CC)C(=O)N[C@H](C(=O)N[C@@H](CCCCN)C(=O)N[C@@H](C)C(=O)NCC(=O)N1CCC[C@H]1C(=O)N[C@@H](C)C(=O)N[C@H](C(=O)N[C@@H](C)C(=O)N[C@H](C(=O)N[C@H](C(=O)NCC(=O)N[C@@H](CCC(N)=O)C(=O)N[C@@H](C)C(=O)N[C@H](C(=O)N[C@@H](CCC(N)=O)C(=O)N[C@H](C(=O)N[C@@H](C)C(=O)N[C@@H](CCCCN)C(N)=O)[C@@H](C)CC)[C@@H](C)O)C(C)C)C(C)C)C(C)C)[C@@H](C)CC` [5-TAMRA-CecA] (5TAMRA-KWKLFKKIEKVGQNIRDGIIKAGPAVAVVGQATQIAK-NH2; C-terminus assumed), the “Intracellular uptake/accumulation of fluorescent conjugate” value (shortened to “Intracellular uptake/accumulation”) in the data set with MG1655 cells was “rapid uptake and massive intracellular accumulation”. The “Intracellular localization of fluorescent conjugate” value (“Intracellular localization” for short) in data set [1] was “co-localize with the ribosome signal”.

In the case of `CC[C@H](C)[C@H](NC(=O)[C@H](CCCCN)NC(=O)[C@H](CCC(=O)O)NC(=O)[C@H](CCCCN)NC(=O)[C@H](CO)NC(=O)[C@H](CCCCN)NC(=O)[C@H](CCCNC(=N)N)NC(=O)[C@H](Cc1ccccc1)NC(=O)[C@H](Cc1ccccc1)NC(=O)[C@H](CC(=O)O)NC(=O)CNC(=O)[C@H](CC(C)C)NC(=O)[C@H](CC(C)C)NC(=O)c1ccc2c(c1)C(=O)OC21c2ccc(N(C)C)cc2Oc2cc(N(C)C)ccc21)C(=O)NCC(=O)N[C@@H](CCCCN)C(=O)N[C@@H](CCC(=O)O)C(=O)N[C@@H](Cc1ccccc1)C(=O)N[C@@H](CCCCN)C(=O)N[C@@H](CCCNC(=N)N)C(=O)N[C@H](C(=O)N[C@H](C(=O)N[C@@H](CCC(N)=O)C(=O)N[C@@H](CCCNC(=N)N)C(=O)N[C@H](C(=O)N[C@@H](CCCCN)C(=O)N[C@@H](CC(=O)O)C(=O)N[C@@H](Cc1ccccc1)C(=O)N[C@@H](CC(C)C)C(=O)N[C@@H](CCCNC(=N)N)C(=O)N[C@@H](CC(N)=O)C(=O)N[C@@H](CC(C)C)C(=O)N[C@H](C(=O)N1CCC[C@H]1C(=O)N[C@@H](CCCNC(=N)N)C(=O)N[C@H](C(=O)N[C@@H](CCC(=O)O)C(=O)N[C@@H](CO)C(=O)O)[C@@H](C)O)C(C)C)[C@@H](C)CC)C(C)C)[C@@H](C)CC` [5-TAMRA-LL-37], in the data set on MG1655 cells, the “Intracellular uptake/accumulation” value is “rapid uptake and massive intracellular accumulation”. Moreover, the “Intracellular localization” value in data set [1] was “co-localize with the ribosome signal”.

For `CC[C@H](C)[C@@H]1NC(=O)CNC(=O)[C@H](CCCNC(=N)N)NC(=O)[C@H](Cc2ccc(O)cc2)NC(=O)[C@@H]2CSSC[C@H](NC1=O)C(=O)N[C@@H](Cc1ccc(O)cc1)C(=O)N[C@@H](CCCNC(=N)N)C(=O)N[C@@H](CCCNC(=N)N)C(=O)N[C@H](C(=O)N[C@@H](CCCNC(=N)N)C(N)=O)CSSC[C@H](NC(=O)[C@H](Cc1c[nH]c3ccccc13)NC(=O)[C@H](CCCCN)NC(=O)c1ccc3c(c1)C(=O)OC31c3ccc(N(C)C)cc3Oc3cc(N(C)C)ccc31)C(=O)N[C@@H](Cc1ccccc1)C(=O)N[C@@H](CCCNC(=N)N)C(=O)N[C@@H](C(C)C)C(=O)N2` [5-TAMRA-Tac1] (5TAMRA-KWCFRVCYRGICYRRCR-NH2; disulfide 3-16, 7-12 (inferred); C-terminus assumed), in the data set on MG1655 cells, the “Intracellular uptake/accumulation” value was “rapid uptake and massive intracellular accumulation”. The “Intracellular localization” value in data set [1] is listed as “co-localize with the ribosome signal”.

(Values after article doi:10.1101/2025.04.10.648262, “Time-resolved phenotyping at subcellular resolution reveals shared principles and key trade-offs across antimicrobial peptide activities” (bioRxiv, 2026).)
